PubChem BioAssay AID1508597 – Cure First – 2020
Shown is a random part of the about 2,100 reagents, in one setting of the screen. 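Calls flag viability under 80% in either arm, not effects specific to rucaparib; the reference for percent is not stated.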 A number with no mark means an inactive call. The record does not give: the 100% reference.

Test: 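Survival screen with siRNA in ovarian cancer cells derived from patients, with or without rucaparib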 (primary screen)
Cells: human ovarian carcinoma lines grown from tumours: OCI-P5x (papillary serous) and OCI-C5x (clear cell)
Reagents: siRNA pool against human genes, 1.25 pmol siRNA per well
Duration: 72 h or 96 h, depending on the cell culture
Conditions: rucaparib 20 µM (about IC30) or vehicle, present until read-out
Rucaparib or vehicle: Vehicle
Cell line: OCI-P5x (serous)
Measured: 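Luminescent ATP-based viability assay read 72 or 96 h after transfection, depending on culture, given as normalised percent viability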
Direction: viability, normalised: higher = more viable cells remaining
Rule for the call: 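a well counts as a hit if its normalised viability is under 80 percent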
Calls: active = viability under 80%; inactive = viability 80% or more

STK32B, technical replicate 1
- viability, normalised (%): 72 (active)

STK32B, technical replicate 2
- viability, normalised (%): 68.2 (active)

STK32B, technical replicate 3
- viability, normalised (%): 57 (active)

CLDN3, technical replicate 1
- viability, normalised (%): 66.8 (active)

CLDN3, technical replicate 2
- viability, normalised (%): 73 (active)

CLDN3, technical replicate 3
- viability, normalised (%): 69.7 (active)

POLN, technical replicate 1
- viability, normalised (%): 72.9 (active)

POLN, technical replicate 2
- viability, normalised (%): 87.5

POLN, technical replicate 3
- viability, normalised (%): 83.1

FXR1, technical replicate 1
- viability, normalised (%): 61.4 (active)

FXR1, technical replicate 2
- viability, normalised (%): 79.4 (active)

FXR1, technical replicate 3
- viability, normalised (%): 77.4 (active)

MAP2K2, technical replicate 1
- viability, normalised (%): 79.7 (active)

MAP2K2, technical replicate 2
- viability, normalised (%): 68.2 (active)

MAP2K2, technical replicate 3
- viability, normalised (%): 55.6 (active)

MBD1, technical replicate 1
- viability, normalised (%): 60.9 (active)

MBD1, technical replicate 2
- viability, normalised (%): 87.4

MBD1, technical replicate 3
- viability, normalised (%): 84.3

RAD52, technical replicate 1
- viability, normalised (%): 77.1 (active)

RAD52, technical replicate 2
- viability, normalised (%): 63.4 (active)

RAD52, technical replicate 3
- viability, normalised (%): 65.5 (active)

ARID2, technical replicate 1
- viability, normalised (%): 60.1 (active)

ARID2, technical replicate 2
- viability, normalised (%): 63 (active)

ARID2, technical replicate 3
- viability, normalised (%): 48.8 (active)

EZH2, technical replicate 1
- viability, normalised (%): 68.6 (active)

EZH2, technical replicate 2
- viability, normalised (%): 84.6

EZH2, technical replicate 3
- viability, normalised (%): 78.8 (active)

FLT1, technical replicate 1
- viability, normalised (%): 78.4 (active)

FLT1, technical replicate 2
- viability, normalised (%): 85.1

FLT1, technical replicate 3
- viability, normalised (%): 68.7 (active)

GUCY2D, technical replicate 1
- viability, normalised (%): 62.4 (active)

GUCY2D, technical replicate 2
- viability, normalised (%): 60.5 (active)

GUCY2D, technical replicate 3
- viability, normalised (%): 70.9 (active)

Reformatted: 3 of the entries above
gene knocked down | technical replicate | viability, normalised (%)
FXR1 | 1 | 61.4 (active)
FXR1 | 2 | 79.4 (active)
FXR1 | 3 | 77.4 (active)
